No constants are given. Whether binding was seen depends on the method and setting. In cells and extracts the contact can be indirect. Binding can be weak; no strength is given. Where a sequence is shown, tags or fusion partners need not be part of it.

Consider three molecules from article PMC4871590.

In assay [1] the target is AvrE1-C’-HA (aa 889–1795) (Pseudomonas syringae pv. tomato DC3000). Kind of assay: co-IP; HA-IP: AvrE1-HA fragments pulled down with anti-HA agarose from lysates of N. benthamiana leaves co-expressing GFP fusions (48 h); co-precipitated GFP fusions detected with anti-GFP; lysis buffer 50 mM Tris-HCl pH 7.5, 150 mM NaCl, 1% Nonidet P40, 0.5% sodium deoxycholate, 5 mM DTT; 4°C.

The target in assay [2] is AvrE1-N’-HA (aa 1–898) (Pseudomonas syringae pv. tomato DC3000). The description is as above.

B1: GFP-B’β (Arabidopsis PP2A B’β subunit) (protein, UniProt O04376 1-499)
chain: MFKKIMKGGHRKPSKSEANEPSSYGIGLPDNRSGPGSNVVVSHASRGALVNSSPSPVTATPPPPPLGSVEPLPLFRDVPVSERQTLFLRKLQNCCFLFDFTDTIKNARDKEIKRQTLLELVDFIQSGSSKISESCQEEMIKMISVNIFRSLPPASHENTGQEPADPEEEEPYLEPSWPHLQLVYELLLRYVVSTDTDTKVAKRYIDHSFVLKLLDLFDSEDPREREYLKTILHRIYGKFMVHRPFIRKAINNIFYRFIYETERHSGIGELLEILGSIINGFALPMKEEHKLFLIRVLIPLHKPKPIVVYHQQLSYCIVQFVEKDYKLADTVIRGLLKYWPVTNCSKENLFLGELEEVLEATQPVEFQRCMVPLFQQIGRCLTSSHFQVAERALFLWNNEHIVGLIAQNRSVILPIIYPTLEKNIQSHWNQAVHGLTTNIKKMFMEMDPELFEECQRQYEEKQAKSKEVEEQRQYTWKRLAEAAAERDGGGGEEDHMITS
B1: the binding result in assay [1] and in assay [2] was “binds” each time.

B2: GFP-B’ξ (Arabidopsis PP2A B’ξ subunit) (protein, UniProt Q9SV41 1-497)
chain: MFNKIIKLGQKKFNKSDQHHQDNNNNNNNTSTNTVVRGSRTTTPAPSSVSNGESQTTAQSPSQTPNHPMFTTTPILEVLPLLKDVSSSDRPLLFMKKAHMCSCHCDFSDTLIMPREKEIKRQTLLELVDFLHSSSGKVNETMQSELIRMVSANIFRCLPPAYHENTGAPPEGNDPEEEEPYLEPWWPHLQLVYELLLRYVVSSEIEPKTAKKFINHTFVSRLLDLFDSEDPREREYLKTVLHRIYGKFIFHRPFIRCSIYNIFYKFLYETERCIGIGELLEILGSVINGFTVPMREEHRLYLVKAILPLHKSKGISIYHQQLAYCVTQFVEKDYKLADTVIRGLLKFWPLTNCQKEVLFLGELEEVLDATEPSEFQQCVVPLFTQIGKCLNSAHFQVAERALFLWNNEHIVGLIAQNKDVIFPIIFEALERNMKGHWNQAVHGLSENVRRMFLEMDTELFEECEKQYLENEAKACELLEQRELTWKRLEEAASLAAN
For the molecule B2, the binding entry in assay [1] and in assay [2] was “binds” throughout.

B3: GFP-B’η (Arabidopsis PP2A B’η subunit) (protein, UniProt Q9LU89 1-510)
chain: MWKQILSKLPNKKSSKHEHRGREHGGHSSSSSHTSGASTSKSTDNGAAKSHAKNASPAGKSAASDSGFKDGNLKSSGNNNNNNNNGVFTPYEALPSFKDVPNTEKQNLFIKKLNLCRVVFDFTDPTKNIKEKDIKRQTLLELVDYVNSPNGKFSEVGIQEVVRMVSANIFRTLNPQPRENKVIDALDLEEEEPSMDLAWPHLQLVYELFLRFVASPETDTKLAKRYIDQSFVLRLLDLFDSEDPRERDCLKTILHRIYGKFMVHRPFIRKSINNIFYRFVFETEKHNGIAEFLEILGSIINGFALPLKDEHKVFLVRVLIPLHKPKCLQMYHQQLSYCITQFVEKDCKLADTVIRGLLKYWPVTNSSKEVMFLNELEEVLEATQPPEFQRCMVPLFRQIARCLNSLHFQVAERALFLWNNNHIENLIMQNRKVILPIIFPALERNAQKHWNQAVHSLTLNVRKIFHDLDPELFKECLAKFKEDESKAAETEAKREATWKRLEELGVRKAS
Consider B3, for which the figures for the binding result in assay [1] and in assay [2] were “no binding” and “binds”, respectively.
